About 6,100 (1.1%) of roughly 580,000 compounds were called active. The inconclusive results got no clear call from the source; some entries with a clear call stand among them for comparison. The call rests on the fitted dose curve; in most records, active means well fitted inhibition curve with a large enough effect; inconclusive means small, poorly fitted or top-dose-only effect, or another doubt; inactive means no such curve, though single readings can be large or run the other way. Where the call is inconclusive, the potency comes from a doubtful curve fit.
Biological target: Polyunsaturated fatty acid lipoxygenase ALOX12 (Homo sapiens) (UniProt P18054)
Test: Primary qHTS assay for inhibitors of human arachidonate 12S-lipoxygenase (ALOX12): Round 2
Conditions: purified 12hLO, xylenol orange hydroperoxide absorbance; activity change, negative = inhibition: at 108 µM (top of the series) unless noted
Procedure, shortened: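 Purified human 12hLO at 150 nM in 25 mM Hepes, 0.01% Triton X-100, pH 7.0, preincubated 15 min at room temperature with compound. Reaction started with 40 uM arachidonic acid, 30 min at room temperature. Hydroperoxide measured by Fe-xylenol orange, 573/405 nm absorbance ratio.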
On the % scale 0 is the no-effect control and ±100 the full control effect; potency means the concentration at half of the fitted maximal effect.

The chains behind the UniProt entries cited, without tags or fusion partners. Where a name states a change or a piece, a line headed by the entry shows the natural chain unless it says otherwise.
UniProt P18054: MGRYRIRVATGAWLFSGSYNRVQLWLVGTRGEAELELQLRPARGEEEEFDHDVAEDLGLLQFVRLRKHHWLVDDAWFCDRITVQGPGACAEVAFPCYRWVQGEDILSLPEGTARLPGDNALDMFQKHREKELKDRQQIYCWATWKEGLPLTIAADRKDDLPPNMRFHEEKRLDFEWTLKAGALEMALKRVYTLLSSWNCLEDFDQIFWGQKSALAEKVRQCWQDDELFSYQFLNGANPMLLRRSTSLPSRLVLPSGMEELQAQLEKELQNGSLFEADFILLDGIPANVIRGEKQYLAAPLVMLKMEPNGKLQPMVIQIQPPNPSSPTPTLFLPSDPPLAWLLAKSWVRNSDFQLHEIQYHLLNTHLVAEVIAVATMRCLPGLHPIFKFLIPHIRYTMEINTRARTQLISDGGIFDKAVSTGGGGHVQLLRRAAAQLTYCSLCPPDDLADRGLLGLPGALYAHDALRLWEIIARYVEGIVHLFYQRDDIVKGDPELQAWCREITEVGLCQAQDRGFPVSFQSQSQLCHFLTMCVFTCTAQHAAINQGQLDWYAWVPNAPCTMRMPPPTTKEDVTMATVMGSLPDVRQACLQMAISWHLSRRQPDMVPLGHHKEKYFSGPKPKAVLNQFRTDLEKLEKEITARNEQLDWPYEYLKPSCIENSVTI

| Compound | activity change, negative = inhibition | Potency |
| --- | --- | --- |
| COc1cccc(CN2CCC3(C2)NC(=O)c2ccccc2O3)c1 (stereo unspecified) | inactive: -7.84% [at 176 µM] | – |
| Fc1ccc(N/N=C/c2ccc(Cl)c(Cl)c2)c(F)c1 | – | active: 35.5 µM |
| COc1ccc(Nc2cc(C(=O)NCCCN(C)Cc3ccccc3)c3ccccc3n2)cc1OC | – | inconclusive: 56.2 µM [inhibitor, partial curve, poor fit] |
| CCOC(=O)c1sc(NC(=O)CCCC(=O)O)c(C#N)c1C | – | active: 6.31 µM |
| CCOC(=O)c1c(NC(=O)CSc2nnnn2-c2ccc(OC)cc2)sc(C)c1C | – | inconclusive: 44.7 µM [inhibitor, partial curve, poor fit] |
| COc1cccc(CNC(=O)C(=O)NCC(c2cccs2)S(=O)(=O)c2cccs2)c1 (stereo unspecified) | inactive: -3.2% | – |
| Cc1ccc(CN2CCC[C@]3(N[C@H](c4ccccc4)[C@@H]4C(=O)N(C)C(=O)[C@@H]43)C2=O)cc1 | – | inconclusive: 7.08 µM [inhibitor, full curve, poor fit] |
| C/C=C/C=C/C(=O)NCc1ccc(C(=O)NC)cc1 | – | inconclusive: 50.1 µM [inhibitor, partial curve, poor fit] |
| CCOC(=O)c1cnn2c(N)c(C#N)nnc12 | – | inconclusive: 5.01 µM [inhibitor, full curve, poor fit] |
| Cc1ccc(S(=O)(=O)N2CCN(Cc3ccccc3C(F)(F)F)CC2)cc1 | – | active: 1.12 µM |
| CCN(CC(=O)Nc1ccc2c(c1)OCCO2)C(=O)COc1ccc(C(C)=O)cc1 | inactive: -1.81% | – |
| c1ccc(COc2ncnc3c2ncn3CCCNCc2cccs2)cc1 | inactive: -2.57% | – |
| COc1ccc(-c2nnsc2C(=O)NC(C)CCc2ccccc2)cc1 (stereo unspecified) | inactive: -6.54% | – |
| COc1cc(/C=N/NC(=O)c2cc3c(ccc4ccccc43)o2)cc(OC)c1O | inactive: 2.2% | – |
| COc1cccc(COC(=O)c2nn(-c3ccccc3)nc2N)c1 | – | inactive |
| COc1cccc(CN2CCCC3(CCN(c4nc5ccccc5o4)C3)C2=O)c1 (stereo unspecified) | – | inconclusive: 100 µM [inhibitor, partial curve, poor fit] |
| CCN(CC)c1ncccc1CNC(=O)C1CCOC1 (stereo unspecified) | inactive: 116% | – |
| OC(CNC1CCCCC1)CON=C1CCSc2c(Cl)cccc21 (stereo unspecified) | – | inconclusive: 35.5 µM [inhibitor, partial curve] |
| COc1ccc(CNS(=O)(=O)c2ccc(-n3cnnn3)c(C)c2)cc1 | inactive: -19.7% | – |
| CC1CCCC/C1=N\NC(=S)NCCc1ccccc1 (stereo unspecified) | inactive: -11.4% | – |
| CC1(C(=O)NS(=O)(=O)c2ccc3ccccc3c2)CCN1C(=O)Cc1ccc(-c2ccccc2)cc1 (stereo unspecified) | – | inconclusive: 5.01 µM [inhibitor, full curve, poor fit] |
| N#C/C(=C\c1ccccc1)C(=O)Nc1nncs1 | – | inconclusive: 8.91 µM [inhibitor, partial curve, poor fit] |
| O=C1OC(c2ccccc2)=C/C1=C\N1CCOCC1 | – | inconclusive: 44.7 µM [inhibitor, partial curve, poor fit] |

Gathered by group, those above containing a halogen (3)

| Compound | activity change, negative = inhibition | Potency |
| --- | --- | --- |
| Fc1ccc(N/N=C/c2ccc(Cl)c(Cl)c2)c(F)c1 | – | active: 35.5 µM |
| Cc1ccc(S(=O)(=O)N2CCN(Cc3ccccc3C(F)(F)F)CC2)cc1 | – | active: 1.12 µM |
| OC(CNC1CCCCC1)CON=C1CCSc2c(Cl)cccc21 (stereo unspecified) | – | inconclusive: 35.5 µM [inhibitor, partial curve] |

Remaining list, next part.

| Compound | activity change, negative = inhibition | Potency |
| --- | --- | --- |
| Cc1cc(=O)n(CC(=O)Nc2ccc(N(C)C)cc2)c(-c2ccccc2)n1 | – | inconclusive: 31.6 µM [inhibitor, partial curve, poor fit] |
| CCCC(=O)Nc1nnc(/C=C/c2ccccc2)s1 | – | inconclusive: 35.5 µM [inhibitor, partial curve, poor fit] |
| O=C(c1ccccc1)c1ccc(C(=O)N2CCN(c3ccccc3O)CC2)cc1 | – | inconclusive: 141 µM [inhibitor, partial curve, poor fit] |
| NC(=S)N/N=C1/CCSc2ccc3ccccc3c21 | – | active: 20 µM |
| O=C(O)C[C@@H]1CCN(C(=O)C(=O)O)C[C@@H]1CC1=NCCc2ccccc21 | – | inconclusive: 3.55 µM [inhibitor, full curve, poor fit] |
| CN1C(=O)C(CC(=O)NC2CCC(O)CC2)(Cc2ccccc2)c2ccccc21 (stereo unspecified) | inactive: 47.7% | – |
| O=C(NC(=S)NCCc1ccccc1)c1ccccc1F | – | inconclusive: 28.2 µM [inhibitor, partial curve, poor fit] |
| Cc1csc2nc(COC(=O)c3ccccc3NC(=O)c3ccccc3Cl)cc(=O)n12 | – | inconclusive: 44.7 µM [inhibitor, partial curve, poor fit] |
| CC(C)CNC(=O)NC(=O)COC(=O)c1cc([N+](=O)[O-])ccc1NCc1ccccc1Cl | inactive: -31.6% | – |
| COc1ccc2c(c1)Cc1sc(NC(=O)c3ccccc3)nc1-2 | – | inconclusive: 28.2 µM [inhibitor, single point] |
| CCc1nnc(NC(=O)CSc2nnc3nc(C)cc(C)n23)s1 | – | inconclusive: 44.7 µM [inhibitor, partial curve, poor fit] |
| CNC(=O)C1(N2CCC[C@H]2C(=O)NCc2ccccc2)CCCCC1 | – | inconclusive: 11.2 µM [inhibitor, full curve, poor fit] |
| O=C(C1CCCN(C2CCN(Cc3ccc4c(c3)OCO4)CC2)C1)N1CCOCC1 (stereo unspecified) | inactive: 30% | – |
| C(=N\NCc1ccccc1)/c1ccc2nccnc2c1 | inactive: 0% | – |
| Cn1c(=O)[nH]c(=O)c2[nH]c(CN3CCN(Cc4ccccc4)CC3)nc21 | – | inconclusive: 1.12 µM [inhibitor, full curve, poor fit] |
| Clc1ccc(C=Nc2ccc(Nc3ccccc3)cc2)c(Cl)c1 | – | inconclusive: 0.631 µM [inhibitor, full curve, poor fit] |
| c1ccc([C@@H]2CNC[C@H]2COc2ccncc2)nc1 | – | inconclusive: 10 µM [inhibitor, partial curve, poor fit] |
| CCN(CC)c1ccc(NC(=O)CCS(=O)(=O)c2cccc3nsnc23)c(C)c1 | – | inactive |
| Cc1csc(NC(=O)c2nc(-c3ccccc3)n(-c3ccccc3)n2)n1 | inactive: -13.7% | – |
| CCc1ccc(-n2nc(C)c3c2NC(=O)CC3C(=O)c2ccc(CC)s2)cc1 (stereo unspecified) | inactive: -21.5% | – |
| CCC1(N2CCN(S(=O)(=O)c3ccc(C(F)(F)F)cc3)CC2)CCN(C(=O)NC)C1 (stereo unspecified) | – | inconclusive: 22.4 µM [inhibitor, full curve] |
| O=C(CN1CCOCC1)Nc1nc(-c2ccccc2)cs1 | inactive: 0% | – |
| CCCn1c2ccccc2c2cnn(CC(=O)Nc3ccccc3OC)c(=O)c21 | – | inconclusive: 126 µM [inhibitor, partial curve, poor fit] |
